These are yes or no findings as the source states them, for the method shown. In cells and extracts the contact can be indirect. Some binding calls cover weakened binding; strength is not graded here.
Biological target: T1, liprin-β1 (mouse (endogenous in MIN6)) (UniProt Q8C8U0)
T1 sequence: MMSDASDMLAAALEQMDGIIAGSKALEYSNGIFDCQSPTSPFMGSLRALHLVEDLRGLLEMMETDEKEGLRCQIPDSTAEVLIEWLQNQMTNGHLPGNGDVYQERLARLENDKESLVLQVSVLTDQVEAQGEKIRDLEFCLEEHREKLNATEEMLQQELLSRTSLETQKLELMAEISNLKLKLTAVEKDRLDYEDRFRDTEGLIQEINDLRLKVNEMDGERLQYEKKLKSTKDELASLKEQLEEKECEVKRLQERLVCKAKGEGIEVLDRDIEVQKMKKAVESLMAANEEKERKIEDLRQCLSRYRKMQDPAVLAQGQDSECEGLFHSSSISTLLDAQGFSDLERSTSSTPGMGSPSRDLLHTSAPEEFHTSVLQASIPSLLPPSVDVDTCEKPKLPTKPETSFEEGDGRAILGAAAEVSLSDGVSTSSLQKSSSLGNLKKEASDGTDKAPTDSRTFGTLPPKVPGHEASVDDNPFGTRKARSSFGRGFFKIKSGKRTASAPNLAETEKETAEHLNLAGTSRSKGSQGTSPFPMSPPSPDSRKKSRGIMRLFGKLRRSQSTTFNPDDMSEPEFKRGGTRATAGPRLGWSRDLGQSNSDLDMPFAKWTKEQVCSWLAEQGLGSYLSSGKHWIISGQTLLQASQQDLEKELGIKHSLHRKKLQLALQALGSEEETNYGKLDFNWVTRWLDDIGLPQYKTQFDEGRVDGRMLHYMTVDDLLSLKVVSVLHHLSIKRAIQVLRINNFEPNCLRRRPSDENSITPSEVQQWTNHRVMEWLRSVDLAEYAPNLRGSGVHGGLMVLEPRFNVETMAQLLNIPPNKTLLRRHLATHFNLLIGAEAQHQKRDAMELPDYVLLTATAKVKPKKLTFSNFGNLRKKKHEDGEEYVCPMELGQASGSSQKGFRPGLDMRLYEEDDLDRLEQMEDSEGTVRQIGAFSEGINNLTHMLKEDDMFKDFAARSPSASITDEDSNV
Assay: co-IP; MIN6 β-cell line; immunoprecipitation of endogenous liprin-β1 with anti-liprin-β1 antibody, IgG control; blots for liprin-α1 and KANK1; n = 3

binding: binds
B1: KANK1 (protein, UniProt E9Q238 1-1360)
chain: MAYTTKVNGCAAEKADGVLNGDHNKEKKDPYFVETPYGFQLDLDFVKYVDDIQKGNTIKKLNIQKRRKPSVPCPEVRAIPGHQGVWTSTESLSSSNSDDSKQCPSFLLARSHVTSTPIPRPPAPLETSPTFAVSENRQLLPPPSPQLPRHNLHVTKTLMETRRRLEQERVTMQMAPGDFRRPRLASFGGMGSTSSLPSFVGSANHSSAIHQLQNGYQGNGDYNSYVPAAPTTSSMGSSVRHSPLSSGISTPVTNVSPMHLQHIREQMAIALKRLKELEEQVRTIPVLQVKISVLQEEKRQLASQLKSQRASSQNEACGVRKRSYSAGNASQLELLARARRGGGELYIDYEEEEMESVEQSTQRIQEFRQLTADMQALERKIQDSSCEVASELRENGQCPSRECKSVAVGSDENMNDVVVYHRDLRPCKDTAVGTVTETRNVGISVTEAMLGVITEADKEIELQQQTIEALKEKIYRLEVQLKETTHDREMTKLKQELQAAGSRKKVDKATMAQPLVFSKLVEALVPTRDQMVGSHVDTRESCVGTSVQTSSVGTSCHPDCKNQVVGSELPMNWWVVKERVAMHDQCVGRSVETCDRSVGVEVSVCETGSNTEASGSDLTLLKTNLNLKDVRSIGCGDCSVDVIVCFPKECTSRSMNTEAVGQEEAAVMAVPHTTDQHTSTNLERVDQCTNTEAATLVESCTNTLLSTMDKQTSTQTVEMRTVAIGEGRVRDINPSTKTRSVGVGTVLSGNSEFDRPCAVKTKESGVGQINIQDNYLVGLKMRTIACGPPQLTVGLMGSRRSVGVGNEPVGELPEESPQPRVASGMVTGLDHYIERVQRLLAEQQTLLAENYSELAEAFGEPHSQIGSLNSQLISTLSSINSVMKSASTEELRNSDFQKASLGKTTGNHLEYTCKCGGLRSGGLLNVQPSQPEVEAETAEGKHSRGHEQFPMQGSTLPPVNLTDDQIATGLYVCPNNENTLKSIMKKSDGNKDSNGAKKNLQFIGINGGYETTSSDESSSDGSSSSESDDECDTIGYPPEEEEEEEEKDHDTRGMAEGHHAVNIEGFKSARVEDEVQVPECEPEKEEIRERYELSEKMLSACNLLKYNIKDPKALASKDMRICLNTLQHDWFRVSSQKSAVPAMVGDYIAAFEAVSPDVLRYIINMADGNGNTALHYSVSHSNFQIVKLLLDADVCNVDHQNKAGYTPIMLAALAAVEAEKDMQVVEELFSCGDVNAKASQAGQTALMLAVSHGRIDMVKGLLACGADVNIQDDEGSTALMCASEHGHVEIVKLLLAQPGCNGHLEDNDGSTALSIALEAGHKDIAVLLYAHLNFSKAQSPSTPRLGRKTSPGPTHRGSFD

Reference: article PMC12803835
